No constants are given. Whether binding was seen depends on the method and setting. A result given as binding can be weak or reduced; the word gives no strength. For some of these results: Binding seen in cells or lysates may run through a third protein.
Assays:
[1] = target: Aly/REF-HA (Yarrowia lipolytica Aly/REF with an HA tag) (Yarrowia lipolytica) (UniProt Q6C2H2); test: co-IP; solubilized extracts (2% Triton X-100, 0.5% SDS, diluted five times in PBS) from membrane-enriched fractions of Y. lipolytica strains over-expressing the tagged proteins; anti-FLAG, anti-V5 or anti-HA immunoprecipitation, 4 hours at 4 °C; Western blot
[2] = target: Mago-FLAG (Yarrowia lipolytica Mago with a C-terminal FLAG tag) (Yarrowia lipolytica) (UniProt Q6C7N5); test: as above
[3] = target: Y14-V5 (Yarrowia lipolytica Y14 with a V5 epitope just downstream from the ATG codon) (Yarrowia lipolytica) (UniProt Q6C7A0); test: as above
[4] = target: Gal4BD-Y14 (Yarrowia lipolytica Y14 fused to the Gal4p DNA-binding domain) (Yarrowia lipolytica) (UniProt Q6C7A0); test: two-hybrid; S. cerevisiae PJ69-4A; Gal4BD-Y14 (pAS2ΔΔ) with Gal4AD-Mago (pACT2); growth on minimal medium lacking leucine, tryptophan and histidine + 5 mM 3-aminotriazole

The chains behind the UniProt entries cited, without tags or fusion partners. Where a name states a change or a piece, a line headed by the entry shows the natural chain unless it says otherwise.
UniProt Q6C2H2: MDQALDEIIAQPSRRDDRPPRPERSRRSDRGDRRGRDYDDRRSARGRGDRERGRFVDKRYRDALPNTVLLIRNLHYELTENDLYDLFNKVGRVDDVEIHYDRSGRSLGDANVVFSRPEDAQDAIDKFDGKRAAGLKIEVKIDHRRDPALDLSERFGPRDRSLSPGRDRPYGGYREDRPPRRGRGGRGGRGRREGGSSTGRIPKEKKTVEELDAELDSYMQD
UniProt Q6C7N5: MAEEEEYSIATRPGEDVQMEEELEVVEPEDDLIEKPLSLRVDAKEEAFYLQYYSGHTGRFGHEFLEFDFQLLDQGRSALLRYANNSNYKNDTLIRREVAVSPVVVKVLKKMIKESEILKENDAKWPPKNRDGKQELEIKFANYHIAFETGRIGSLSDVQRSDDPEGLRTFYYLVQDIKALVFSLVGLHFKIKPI
UniProt Q6C7A0: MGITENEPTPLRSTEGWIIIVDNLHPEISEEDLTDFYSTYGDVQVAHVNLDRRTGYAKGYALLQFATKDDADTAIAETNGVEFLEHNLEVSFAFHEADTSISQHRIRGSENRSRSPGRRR

In the case of “Y14-V5 (Yarrowia lipolytica Y14 with a V5 epitope just downstream from the ATG codon) (from UniProt Q6C7A0)”, the binding [1] is reported as “binds” and the binding [2] is reported as “binds”.

“Mago-FLAG (Yarrowia lipolytica Mago with a C-terminal FLAG tag) (from UniProt Q6C7N5)” was tested, and the binding [3] was “binds”.

“Gal4AD-Mago (Yarrowia lipolytica Mago fused to the Gal4p-activating domain) (from UniProt Q6C7N5)” was tested, and the binding [4] was “binds”.
